Results published in patent publication US20220090023A1, “METHODS FOR REGULATING POTENCY OF PLURIPOTENT STEM CELLS AND APPLICATIONS THEREOF” (ACADEMIA SINICA, priority 2018, published 2022).
For at least one compound, name, drawing or mass did not settle the structure.

How the values were obtained:
Format in all cases: cell-based, human
HUES6 hESCs = experiment: Alkaline phosphatase activity after cholesterol inhibitor treatment; details: treatment for 3 days
Description: To check the functional roles of cholesterol on pluripotency, cholesterol inhibitor simvastatin, AY9944, Methyl-β-cyclodextrin (MBCD) were used to inhibit cholesterol biosynthesis (FIG. 4A). […] HMGCR is the rate-limiting enzyme of cholesterol biosynthesis. The side effects of statin are few and no cytotoxic side effects in human has been reported. AY9944 inhibits Δ7-dehydrocholesterol reductase (DHCR7), and decrease levels of cholesterol (Wassila Gaoua, 2000). Methyl-β-cyclodextrin (MBCD) directly deprived cellular cholesterol (Mahammad and Parmryd, 2015) (FIG. 4A). […] Next, we would like to know whether PSCs are more rely on cholesterol pathway. Thus, we compared the sensitivities of three cholesterol inhibitors in PSCs and three somatic fibroblast cells. Primary human foreskin fibroblasts (CRL-2097), a human foreskin fibroblast cell line (BJ-5Ta), and a fetal lung fibroblast cell line (IMR-90) were used for comparison.

[1] = tested on: TERT, c-MYC, HMGCR, PODXL; experiment: Western blot after simvastatin treatment
[2] = tested on: PODXL overexpressing hESCs; experiment: Inhibitor treatment of PODXL overexpressing hESCs (Alamar blue, ALP activity); details: PODXL overexpressed one day, then inhibitor treatment for 3 days
Method: hESCs were cultured with Essential 8 medium (Thermo Fisher, A1517001) which containing 15% Alamar blue at 37° C. for 5 hours. The activities were calculated by measuring absorbance at 570 nm and 600 nm. To count the cell numbers with trypan blue assay, cells were treated with trypsin and the suspended cells were mixed 0.2% trypan blue (1:1) and counted with a hemocytometer.

CCC(C)(C)C(=O)O[C@H]1C[C@@H](C)C=C2C=C[C@H](C)[C@H](CC[C@@H]3C[C@@H](O)CC(=O)O3)[C@H]21 [Simvastatin, (1S,3R,7S,8S,8aR)-1,2,3,7,8,8a-Hexahydro-3,7-dimethyl-8-[2-[(2R,4R)-tetrahydro-4-hydroxy-6-oxo-2H-pyran-2-yl]ethyl]-1-naphthalenyly-2,2-dimethyl butanoate]
Alkaline phosphatase activities (stem cell marker expression) (HUES6 hESCs): hampered
TERT, c-MYC, HMGCR, and PODXL expression levels [1]: downregulated
upregulation in self-renewal (cell growth and ALP activity) by PODXL overexpression [2]: inhibited
